Test results reported in PubChem BioAssay AID2551 (National Center for Advancing Translational Sciences (NCATS), 2010).
Where “and” joins values, the source holds several entries; their conditions need not be identical. Equal entries are not always repeated. The whole screen tested about 310,000 compounds, of which about 17,000 (5.5%) were called active. This list was built around the results that the source calls inconclusive (neither active nor inactive); the mix of calls is not that of the screen. Calls come from the whole dose curve; as a rule, active = well fitted inhibition curve with a large enough effect; inconclusive = small, poorly fitted or top-dose-only effect, or effect the other way; inactive = no such curve, though single readings can be large or run the other way. A potency beside an inconclusive call is a rough fit, not a confirmed value.

Chains of the proteins cited; added tags and fusions are not shown. Lines headed by an entry give the natural chain unless they say otherwise; changes in a name come on top.
UniProt P51450: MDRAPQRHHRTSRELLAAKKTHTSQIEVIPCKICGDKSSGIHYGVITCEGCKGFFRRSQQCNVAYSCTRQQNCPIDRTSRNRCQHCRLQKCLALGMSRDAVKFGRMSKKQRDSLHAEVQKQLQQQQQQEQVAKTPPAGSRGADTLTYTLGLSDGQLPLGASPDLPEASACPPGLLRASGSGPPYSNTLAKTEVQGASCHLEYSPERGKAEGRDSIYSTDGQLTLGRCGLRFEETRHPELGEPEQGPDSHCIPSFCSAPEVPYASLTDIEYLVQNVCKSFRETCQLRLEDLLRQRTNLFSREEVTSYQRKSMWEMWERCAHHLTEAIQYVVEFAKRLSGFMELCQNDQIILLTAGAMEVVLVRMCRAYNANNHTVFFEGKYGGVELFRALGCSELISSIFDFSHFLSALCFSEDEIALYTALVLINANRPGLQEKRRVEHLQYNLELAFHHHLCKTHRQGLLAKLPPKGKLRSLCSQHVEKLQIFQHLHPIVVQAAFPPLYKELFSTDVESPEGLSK

target: Nuclear receptor ROR-gamma (Mus musculus) (UniProt P51450); assay: qHTS for inhibitors of ROR gamma transcriptional activity; conditions: Drosophila S2 Gal4-RORgamma UAS-luciferase reporter, 20 h; series mostly up to 53.6 µM; note: nearly all actives have a fitted effect of over 60% in size
How it was run: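 In this cell-based reporter format, copper sulfate (700 uM final) drives Gal4–ROR gamma fusion expression from a metallothionein promoter in Drosophila Schneider cells; compounds preincubated 1 hr, reporter read after 20 hr at ambient temperature.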
Potency is the fitted concentration of half-maximal effect.

Potency, inconclusive:
Cc1ccc(Nc2ncccc2C(N)=O)cc1[N+](=O)[O-] 7.94 µM [activator, partial curve, poor fit]
Cc1cccc(NCc2ccc(N(C)C)cc2)n1 35.5 µM [inhibitor, single point]
N/C(=N/OCc1cccc([N+](=O)[O-])c1)c1nonc1N 35.5 µM [activator, single point]
O=C(c1cc2cc3ccc(Cl)cc3nc2o1)N1CCCCCC1 1.41 µM [activator, full curve]
COc1cc(OC)cc(-n2nc(C(=O)N3CC(C)CC(C)C3)c3ccccc3c2=O)c1 (stereo not drawn) 35.5 µM [activator, partial curve, poor fit]
Cc1ccc(CSc2nnc(NC(=O)C3COc4ccccc4O3)s2)cc1 (stereo not drawn) 20 µM [inhibitor, single point]
O=C(Cc1cccs1)N/N=C/C=C\c1ccco1 35.5 µM [inhibitor, single point]
CCOC(=O)C1=C(C)N(c2ccccc2)C(=O)C1 2 µM [inhibitor, single point]
O=S(=O)(Nc1ccc(Cc2ccncc2)cc1)c1ccc(Br)cc1 5.62 µM [activator, partial curve]
CC(C)(C)c1ccc(NC(=O)COC(=O)C2(C)CC2(Cl)Cl)cc1 (stereo not drawn) 14.1 µM [activator, partial curve]
Cc1ccc(NC(=O)Nc2ccccc2)cc1[N+](=O)[O-] 10 µM [activator, partial curve]
Cc1ccc(S(=O)(=O)/N=C(\c2ccccc2)N(C)S(=O)(=O)c2ccc(C)cc2)cc1 25.1 µM [activator, single point]
CN1CCN(c2ncnc3ccc(-c4cccc(C#N)c4)cc23)CC1 35.5 µM [inhibitor, single point]
COC(=O)c1ccccc1-c1ccc(/C=N/NC(=O)c2cc3ccccc3o2)o1 17.8 µM [inhibitor, single point]
Cc1nn(C)c(C)c1NC(=O)CCCSc1nc(-c2ccco2)cc(C(F)(F)F)n1 12.6 µM [activator, single point]
CC(=O)c1c(C)[nH]c(C(=O)Nc2nc(-c3ccc(Cl)cc3)cs2)c1C 0.251 µM [activator, full curve, poor fit]
O=C(OC(C(=O)Nc1ccc(Cl)c(C(F)(F)F)c1)c1ccccc1)C1=COCCO1 (stereo not drawn) 14.1 µM [inhibitor, partial curve]
CCOC(=O)CN1C(=O)C(Sc2n[nH]c(-c3ccc(C)cc3)n2)CCc2ccccc21 (stereo not drawn) 10 µM [activator, partial curve]
N#C/C(=C\c1ccc(N2CCOCC2)o1)c1ccccc1 35.5 µM [inhibitor, single point]
Cc1cc(N2CCOCC2)nc2ccc(NC(=S)N3CCCCC3C)cc12 (stereo not drawn) 35.5 µM [inhibitor, single point]
COc1ccccc1/C=C/C=N/n1c(-c2ccncc2)n[nH]c1=S 5.62 µM [inhibitor, partial curve]
COCCn1c(C)cc(C(=O)COC(=O)C23CC4CC(CC(O)(C4)C2)C3)c1C 14.1 µM [inhibitor, single point]
COC(=O)[C@@H](Cc1ccccc1)NC(=O)NCCc1c[nH]c2ccccc12 31.6 µM [activator, single point]
O=C(N/N=C/c1cccc(O)c1)c1ccc(NC(=O)C2CCCCC2)cc1 4.47 µM [activator, partial curve]
O=C(CCOc1ccccc1)N1CCN(S(=O)(=O)c2cccs2)CC1 11.2 µM [activator, single point]
Clc1ccccc1-c1ncnc2ccc(Br)cc12 11.2 µM [inhibitor, partial curve, poor fit]
Cc1ccc2nc(NC(=S)NC(=O)c3ccc(OC(C)C)cc3)sc2c1 35.5 µM [inhibitor, single point]
O=C(CCCCCN1C(=O)c2cccc3cccc(c23)C1=O)NO 1.58 µM [inhibitor, partial curve]
O=C(CCN1CCN(c2ccc([N+](=O)[O-])cc2)CC1)c1ccc(Cl)cc1 35.5 µM [inhibitor, single point]
Cc1cccc(-c2n[nH]c(=S)n2/N=C/C=C/c2ccco2)c1 3.16 µM [inhibitor, full curve, poor fit]

Potency, inactive:
N=C1CCCN1CC(=O)c1ccc(Br)cc1
O=C(CC1C(=O)NCCN1Cc1cccc(F)c1)NC1CCCCC1 (stereo not drawn)
CCCN1CCC(=O)N([C@H](CO)Cc2ccccc2)CC1
COc1ccc(NC(=O)c2ccc(C)cc2)c(OC)c1
COc1ccccc1S(=O)(=O)Cc1ccc(C(=O)N2CCN(c3ccc(C)cc3)C(C)C2)o1 (stereo not drawn)

Potency, active:
CCN(c1ccccc1)S(=O)(=O)c1ccc(C(=O)Nc2ncccc2O)cc1 20 µM
CCN(CC)C(=S)SSC(=S)N(CC)CC 282 nM and 316 nM and 1.12 µM
CSc1cccc(NC(=S)Nc2cc(C)ccc2C)c1 11.2 µM
S=C(NCCCc1ccccc1)NCc1ccccc1 6.31 µM
Cc1ccc(C(=O)CSc2ccccc2C(=O)O)cc1 10 µM
CC(NC(=O)c1ccco1)C(=O)Nc1nc(-c2ccccn2)cs1 (stereo not drawn) 11.2 µM
COC(=O)C1CCN(C(=O)C2CCN(C(=O)[C@@H](NS(=O)(=O)c3ccc(C)cc3)C(C)C)CC2)CC1 1.12 µM
CC1CCN(S(=O)(=O)c2ccc(NC(=S)NC(=O)c3ccc(Cl)cc3)cc2)CC1 2 µM

3 compounds already listed, sorted by formula weight, rising.
Potency, active:
CC(NC(=O)c1ccco1)C(=O)Nc1nc(-c2ccccn2)cs1 (stereo not drawn) 11.2 µM
CCN(c1ccccc1)S(=O)(=O)c1ccc(C(=O)Nc2ncccc2O)cc1 20 µM
COC(=O)C1CCN(C(=O)C2CCN(C(=O)[C@@H](NS(=O)(=O)c3ccc(C)cc3)C(C)C)CC2)CC1 1.12 µM
